Source: patent publication US20090318556A1, “BIOMARKERS FOR DETECTING RADIATION EXPOSURE: METHODS AND USES THEREOF” (priority 2008, published 2009)
Structures can show the parent of a compound that is named as a salt.

Assay: Urinary biomarkers after γ irradiation of mice (24-h urine, UPLC-TOFMS)
Format: in vivo, Male C57BL\6 mice
Parameters: key to Note: [M − H]− ion in urine according to exposure status: [M − H]− (±10 ppm) either not detected or not statistically significantly different (P ≧ 0.05) according to exposure status; 2: [M − H]− (±10 ppm) elevated (P < 0.05) in urine from mice exposed to 3 Gy; 3: [M − H]− (±10 ppm) elevated (P < 0.05) in urine from mice exposed to 8 Gy; 4: [M − H]− (±10 ppm) elevated (P < 0.05) in urine from mice both exposed to 3 and 8 Gy
Details: for urinary excretion elevated after irradiation over sham / urinary concentration normalized to creatinine / urinary excretion reduced after irradiation / elevated after γ irradiation: 0-24 h urine; for urinary excretion elevated after irradiation over sham: normalized to creatinine; for Note: [M − H]− ion in urine according to exposure status: mice exposed to 3 or 8 Gy vs controls, creatinine-normalized relative concentrations, t test α = 0.05; for urinary excretion reduced after irradiation: relative peak area normalized to creatinine; for elevated after γ irradiation: 3 and 8 Gy γ irradiation
[1] = 3 Gy irradiated mice, mean±s.d.
[2] = 8 Gy irradiated mice, mean±s.d.

O=c1ccn([C@H]2C[C@H](O)[C@@H](CO)O2)c(=O)[nH]1 [2′-Deoxyuridine]
ratio of 2′-deoxyuridine to 2′deoxycytidine in urine (3 Gy): approximately 55
urinary excretion elevated after irradiation over sham (3 Gy γ irradiation): 11 fold
ratio of 2′-deoxyuridine to 2′deoxycytidine in urine (8 Gy): ~15
urinary excretion elevated after irradiation over sham (8 Gy γ irradiation): five

COc1cc(C(O)C(=O)O)ccc1O (stereo not shown) [4-Hydroxy-3-methoxymandelic acid]
Note: [M − H]− ion in urine according to exposure status: 1

O=c1[nH]c(=O)c2[nH]cnc2[nH]1 [Xanthine]
urinary excretion elevated after irradiation over sham (3 Gy γ irradiation): five
urinary excretion elevated after irradiation over sham (8 Gy γ irradiation): not after 8 Gy irradiation

NCCS(=O)(=O)O [taurine]
urinary concentration normalized to creatinine (3 Gy irradiated mice): 8.52±1.90 mmol/mmol creatinine
urinary excretion elevated after irradiation over sham (8 Gy γ irradiation): elevated only after the 8 Gy dose

COc1cc(C(O)CO)ccc1O (stereo not shown) [4-Hydroxy-3-methoxyphenylglycol]
Note: [M − H]− ion in urine according to exposure status: 1

CCCCC[C@H](O)/C=C/[C@@H]1[C@H](C/C=C\CCCC(=O)O)[C@@H](O)C[C@H]1O [8-Isoprostaglandin F2α]
Note: [M − H]− ion in urine according to exposure status: 1

O=S(=O)(O)Oc1c[nH]c2ccccc12 [Indoxyl sulfate]
Note: [M − H]− ion in urine according to exposure status: 1

O=C(O)CNC(=O)c1ccccc1 [Hippuric Acid]
Note: [M − H]− ion in urine according to exposure status: 3

O=c1[nH]c(=O)c2ncn([C@H]3C[C@H](O)[C@@H](CO)O3)c2[nH]1 [2′-Deoxyxanthosine]
urinary excretion elevated after irradiation over sham (3 Gy γ irradiation): four
urinary excretion elevated after irradiation over sham (8 Gy γ irradiation): six

Nc1ccn([C@H]2C[C@H](O)[C@@H](CO)O2)c(=O)n1 [2′-Deoxycytidine]
urinary excretion reduced after irradiation (3 Gy γ irradiation): five
urinary excretion reduced after irradiation (8 Gy γ irradiation): three

COc1cc(CC(=O)O)ccc1O [Homovanillic acid]
Note: [M − H]− ion in urine according to exposure status: 1

CCCCCC(=O)NCC(=O)O [N-Hexanoylglycine]
urinary concentration normalized to creatinine [1]: 643±259 μmol/mmol creatinine
elevated after γ irradiation: 40-80%
urinary concentration normalized to creatinine [2]: 802±117 μmol/mmol creatinine

CC1(O)C(=O)NC(=O)NC1O (stereo not shown) [Thymine glycol]
Note: [M − H]− ion in urine according to exposure status: 1

O=C(O)CC(O)(CC(=O)O)C(=O)O [Citric Acid]
Note: [M − H]− ion in urine according to exposure status: 4

CNCC(O)c1ccc(O)c(OC)c1 (stereo not shown) [Metanephrine]
Note: [M − H]− ion in urine according to exposure status: 1

O=C(O)Cc1c[nH]c2ccc(O)cc12 [5-Hydroxyindoleacetic acid]
Note: [M − H]− ion in urine according to exposure status: 3

CCCCC[C@H](O)/C=C/[C@H]1OC(O)C[C@H](O)[C@@H]1C/C=C\CCCC(=O)O (stereo partly shown) [Thromboxane B2]
Note: [M − H]− ion in urine according to exposure status: 1

Cc1cn([C@H]2C[C@H](O)[C@@H](CO)O2)c(=O)[nH]c1=O [β-Thymidine]
urinary concentration normalized to creatinine [1]: 67.7±17.4 μmol/mmol creatinine
elevated after γ irradiation: 6- to 7 fold
urinary concentration normalized to creatinine [2]: 35.6±8.84 μmol/mmol creatinine

O=c1[nH]c(=O)c2ncn([C@@H]3O[C@H](CO)[C@@H](O)[C@H]3O)c2[nH]1 [Xanthosine]
urinary excretion elevated after irradiation over sham (3 Gy γ irradiation): two
urinary excretion elevated after irradiation over sham (8 Gy γ irradiation): five

COc1cc(C(O)CN)ccc1O (stereo not shown) [Normetanephrine]
Note: [M − H]− ion in urine according to exposure status: 3

CC1(O)C(=O)NC(=O)N([C@H]2C[C@H](O)[C@@H](CO)O2)C1O (stereo partly shown) [Thymidine glycol]
Note: [M − H]− ion in urine according to exposure status: 1

Nc1nc2nc(O)[nH]c2c(=O)[nH]1 [8-Hydroxyguanine]
Note: [M − H]− ion in urine according to exposure status: 2

Cc1c(OS(=O)(=O)O)cccc1C(=O)O [3-hydroxy-2-methylbenzoic acid 3-O-sulfate]
urinary excretion elevated after irradiation over sham (3 Gy γ irradiation): 2.5 fold
urinary excretion elevated after irradiation over sham (8 Gy γ irradiation): not elevated

NCC(=O)O [Glycine]
Note: [M − H]− ion in urine according to exposure status: 1
